In article PMC6328609:
No constants are given. Whether binding was seen depends on the method and setting. In cells and extracts the contact can be indirect. Some results given as binding are weak or reduced against the parent protein; the word gives no strength.

The chains behind the UniProt entries cited, without tags or fusion partners.
UniProt O95817: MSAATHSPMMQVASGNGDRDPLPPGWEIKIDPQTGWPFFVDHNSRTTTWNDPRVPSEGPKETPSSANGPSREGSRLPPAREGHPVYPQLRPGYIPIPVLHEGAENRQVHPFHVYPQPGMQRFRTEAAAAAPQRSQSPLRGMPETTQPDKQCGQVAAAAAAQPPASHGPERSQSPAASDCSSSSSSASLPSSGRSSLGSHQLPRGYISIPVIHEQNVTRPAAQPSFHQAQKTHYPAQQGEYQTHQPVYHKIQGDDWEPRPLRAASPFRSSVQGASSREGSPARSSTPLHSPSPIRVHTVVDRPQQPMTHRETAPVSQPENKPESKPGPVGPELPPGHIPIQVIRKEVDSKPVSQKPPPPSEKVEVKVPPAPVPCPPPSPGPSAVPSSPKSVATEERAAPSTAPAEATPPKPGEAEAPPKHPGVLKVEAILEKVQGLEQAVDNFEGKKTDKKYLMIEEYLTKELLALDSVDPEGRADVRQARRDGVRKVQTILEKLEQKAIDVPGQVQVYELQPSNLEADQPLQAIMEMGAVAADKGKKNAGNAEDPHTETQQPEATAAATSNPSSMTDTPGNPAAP
UniProt P20700: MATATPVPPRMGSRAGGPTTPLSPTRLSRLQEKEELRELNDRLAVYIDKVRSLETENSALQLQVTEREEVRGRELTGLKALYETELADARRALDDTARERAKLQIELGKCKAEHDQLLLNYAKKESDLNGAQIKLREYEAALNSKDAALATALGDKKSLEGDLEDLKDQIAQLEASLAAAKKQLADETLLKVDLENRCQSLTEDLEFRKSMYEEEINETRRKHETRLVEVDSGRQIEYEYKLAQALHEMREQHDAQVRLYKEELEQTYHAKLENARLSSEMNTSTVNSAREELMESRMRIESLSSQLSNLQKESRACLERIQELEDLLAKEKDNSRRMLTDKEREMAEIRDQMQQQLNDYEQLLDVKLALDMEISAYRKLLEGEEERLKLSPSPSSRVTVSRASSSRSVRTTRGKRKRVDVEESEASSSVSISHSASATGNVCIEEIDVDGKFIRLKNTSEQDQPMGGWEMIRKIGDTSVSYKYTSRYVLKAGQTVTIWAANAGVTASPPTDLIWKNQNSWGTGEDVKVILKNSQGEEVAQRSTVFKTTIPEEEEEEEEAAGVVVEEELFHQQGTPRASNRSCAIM

Biological target: Bcl2-associated anthanogene-3 (BAG3), FLAG-tagged, full length (human) (UniProt O95817)
Assay: co-IP; HEK293 cells transfected 48 h, lysed in RIPA buffer; FLAG-BAG3 constructs precipitated with FLAG antibody on magnetic beads in Tris (pH 7.5)-buffered saline; western blot of the partner

binding: binds
Substance: mCherry-lamin B1-10 (from UniProt P20700 1-586)
